The nature of the data set: general procedure: Fmoc solid-phase peptide synthesis; Rink amide MBHA; HATU/HOAt. The settings on record: whole synthesis, scale 62.5 µmol.

The substance “[3-MP^0-D-Glu^1,desGlu^2-6]-Ala-Tyr-Gly-Trp-Met-Asp-Phe-NH2” showed an isolated mass of 37.6 mg and an isolated yield of 54%.

Source of the values: PMC5914118 (Contrast Media & Molecular Imaging, 2018).
